Amino acid sequences for entries named in this document (tags omitted). Residues count along the entry.
UniProt Q92793, 2-2442 limits assumed: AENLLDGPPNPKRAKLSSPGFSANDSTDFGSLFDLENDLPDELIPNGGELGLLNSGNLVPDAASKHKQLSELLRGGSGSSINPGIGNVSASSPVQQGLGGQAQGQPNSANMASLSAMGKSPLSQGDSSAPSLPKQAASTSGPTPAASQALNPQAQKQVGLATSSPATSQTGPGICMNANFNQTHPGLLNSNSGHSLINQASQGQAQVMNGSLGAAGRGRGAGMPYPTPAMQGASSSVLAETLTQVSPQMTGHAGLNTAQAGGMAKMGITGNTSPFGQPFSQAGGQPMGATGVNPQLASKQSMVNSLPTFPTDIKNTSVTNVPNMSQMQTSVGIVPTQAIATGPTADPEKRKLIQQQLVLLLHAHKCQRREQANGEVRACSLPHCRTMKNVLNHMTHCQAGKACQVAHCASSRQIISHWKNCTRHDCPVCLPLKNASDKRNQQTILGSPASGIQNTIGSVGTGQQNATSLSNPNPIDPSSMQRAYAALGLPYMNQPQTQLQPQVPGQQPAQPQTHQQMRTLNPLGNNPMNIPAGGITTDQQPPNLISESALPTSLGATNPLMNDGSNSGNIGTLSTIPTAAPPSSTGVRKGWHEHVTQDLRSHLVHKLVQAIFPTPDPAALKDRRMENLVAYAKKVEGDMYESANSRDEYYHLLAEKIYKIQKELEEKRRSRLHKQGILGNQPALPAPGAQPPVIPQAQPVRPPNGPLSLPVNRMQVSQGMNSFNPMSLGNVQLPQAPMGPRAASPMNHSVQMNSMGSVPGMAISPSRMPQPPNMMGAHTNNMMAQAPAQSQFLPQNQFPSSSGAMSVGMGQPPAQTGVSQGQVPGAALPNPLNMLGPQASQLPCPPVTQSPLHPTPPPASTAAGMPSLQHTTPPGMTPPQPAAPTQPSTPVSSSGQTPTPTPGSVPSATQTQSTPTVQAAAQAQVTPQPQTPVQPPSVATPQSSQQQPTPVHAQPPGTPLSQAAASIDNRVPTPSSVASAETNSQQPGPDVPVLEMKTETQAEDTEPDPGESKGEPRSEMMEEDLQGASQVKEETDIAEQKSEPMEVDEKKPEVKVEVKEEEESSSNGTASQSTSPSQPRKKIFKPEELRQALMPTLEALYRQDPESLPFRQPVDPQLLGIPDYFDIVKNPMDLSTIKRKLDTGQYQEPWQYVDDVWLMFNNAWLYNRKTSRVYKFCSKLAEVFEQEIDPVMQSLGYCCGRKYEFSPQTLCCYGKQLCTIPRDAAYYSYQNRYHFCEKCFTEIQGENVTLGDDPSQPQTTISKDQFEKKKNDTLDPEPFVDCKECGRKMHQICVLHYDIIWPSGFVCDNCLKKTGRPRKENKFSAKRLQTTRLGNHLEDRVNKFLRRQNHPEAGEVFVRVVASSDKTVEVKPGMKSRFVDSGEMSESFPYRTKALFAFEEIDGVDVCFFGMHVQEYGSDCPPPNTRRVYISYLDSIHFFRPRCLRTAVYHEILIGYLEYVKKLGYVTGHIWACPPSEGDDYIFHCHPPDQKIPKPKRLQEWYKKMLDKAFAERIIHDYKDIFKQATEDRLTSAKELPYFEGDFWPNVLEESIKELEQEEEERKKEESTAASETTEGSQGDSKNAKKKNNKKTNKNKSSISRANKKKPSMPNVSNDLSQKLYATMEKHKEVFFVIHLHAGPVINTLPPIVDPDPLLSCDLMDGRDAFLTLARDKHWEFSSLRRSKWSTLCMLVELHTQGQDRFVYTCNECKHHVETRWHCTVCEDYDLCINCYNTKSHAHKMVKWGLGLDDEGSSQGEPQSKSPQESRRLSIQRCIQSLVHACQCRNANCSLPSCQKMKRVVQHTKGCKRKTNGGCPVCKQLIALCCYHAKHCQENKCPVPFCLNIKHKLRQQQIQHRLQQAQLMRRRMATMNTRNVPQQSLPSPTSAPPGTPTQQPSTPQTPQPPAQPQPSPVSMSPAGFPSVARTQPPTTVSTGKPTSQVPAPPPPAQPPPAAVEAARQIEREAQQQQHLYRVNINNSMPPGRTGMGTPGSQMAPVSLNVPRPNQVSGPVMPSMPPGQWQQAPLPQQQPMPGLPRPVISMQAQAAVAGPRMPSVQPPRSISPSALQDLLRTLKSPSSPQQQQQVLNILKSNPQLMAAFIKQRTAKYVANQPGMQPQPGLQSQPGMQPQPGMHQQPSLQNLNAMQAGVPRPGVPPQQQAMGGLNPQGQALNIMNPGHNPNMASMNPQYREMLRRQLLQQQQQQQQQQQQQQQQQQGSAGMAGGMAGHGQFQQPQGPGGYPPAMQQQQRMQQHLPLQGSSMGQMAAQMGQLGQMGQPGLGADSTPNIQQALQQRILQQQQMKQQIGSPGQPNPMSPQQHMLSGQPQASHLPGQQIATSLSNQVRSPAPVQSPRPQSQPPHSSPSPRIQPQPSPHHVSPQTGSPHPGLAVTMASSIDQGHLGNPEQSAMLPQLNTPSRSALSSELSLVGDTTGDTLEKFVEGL
UniProt Q09472, 2-2414 limits assumed: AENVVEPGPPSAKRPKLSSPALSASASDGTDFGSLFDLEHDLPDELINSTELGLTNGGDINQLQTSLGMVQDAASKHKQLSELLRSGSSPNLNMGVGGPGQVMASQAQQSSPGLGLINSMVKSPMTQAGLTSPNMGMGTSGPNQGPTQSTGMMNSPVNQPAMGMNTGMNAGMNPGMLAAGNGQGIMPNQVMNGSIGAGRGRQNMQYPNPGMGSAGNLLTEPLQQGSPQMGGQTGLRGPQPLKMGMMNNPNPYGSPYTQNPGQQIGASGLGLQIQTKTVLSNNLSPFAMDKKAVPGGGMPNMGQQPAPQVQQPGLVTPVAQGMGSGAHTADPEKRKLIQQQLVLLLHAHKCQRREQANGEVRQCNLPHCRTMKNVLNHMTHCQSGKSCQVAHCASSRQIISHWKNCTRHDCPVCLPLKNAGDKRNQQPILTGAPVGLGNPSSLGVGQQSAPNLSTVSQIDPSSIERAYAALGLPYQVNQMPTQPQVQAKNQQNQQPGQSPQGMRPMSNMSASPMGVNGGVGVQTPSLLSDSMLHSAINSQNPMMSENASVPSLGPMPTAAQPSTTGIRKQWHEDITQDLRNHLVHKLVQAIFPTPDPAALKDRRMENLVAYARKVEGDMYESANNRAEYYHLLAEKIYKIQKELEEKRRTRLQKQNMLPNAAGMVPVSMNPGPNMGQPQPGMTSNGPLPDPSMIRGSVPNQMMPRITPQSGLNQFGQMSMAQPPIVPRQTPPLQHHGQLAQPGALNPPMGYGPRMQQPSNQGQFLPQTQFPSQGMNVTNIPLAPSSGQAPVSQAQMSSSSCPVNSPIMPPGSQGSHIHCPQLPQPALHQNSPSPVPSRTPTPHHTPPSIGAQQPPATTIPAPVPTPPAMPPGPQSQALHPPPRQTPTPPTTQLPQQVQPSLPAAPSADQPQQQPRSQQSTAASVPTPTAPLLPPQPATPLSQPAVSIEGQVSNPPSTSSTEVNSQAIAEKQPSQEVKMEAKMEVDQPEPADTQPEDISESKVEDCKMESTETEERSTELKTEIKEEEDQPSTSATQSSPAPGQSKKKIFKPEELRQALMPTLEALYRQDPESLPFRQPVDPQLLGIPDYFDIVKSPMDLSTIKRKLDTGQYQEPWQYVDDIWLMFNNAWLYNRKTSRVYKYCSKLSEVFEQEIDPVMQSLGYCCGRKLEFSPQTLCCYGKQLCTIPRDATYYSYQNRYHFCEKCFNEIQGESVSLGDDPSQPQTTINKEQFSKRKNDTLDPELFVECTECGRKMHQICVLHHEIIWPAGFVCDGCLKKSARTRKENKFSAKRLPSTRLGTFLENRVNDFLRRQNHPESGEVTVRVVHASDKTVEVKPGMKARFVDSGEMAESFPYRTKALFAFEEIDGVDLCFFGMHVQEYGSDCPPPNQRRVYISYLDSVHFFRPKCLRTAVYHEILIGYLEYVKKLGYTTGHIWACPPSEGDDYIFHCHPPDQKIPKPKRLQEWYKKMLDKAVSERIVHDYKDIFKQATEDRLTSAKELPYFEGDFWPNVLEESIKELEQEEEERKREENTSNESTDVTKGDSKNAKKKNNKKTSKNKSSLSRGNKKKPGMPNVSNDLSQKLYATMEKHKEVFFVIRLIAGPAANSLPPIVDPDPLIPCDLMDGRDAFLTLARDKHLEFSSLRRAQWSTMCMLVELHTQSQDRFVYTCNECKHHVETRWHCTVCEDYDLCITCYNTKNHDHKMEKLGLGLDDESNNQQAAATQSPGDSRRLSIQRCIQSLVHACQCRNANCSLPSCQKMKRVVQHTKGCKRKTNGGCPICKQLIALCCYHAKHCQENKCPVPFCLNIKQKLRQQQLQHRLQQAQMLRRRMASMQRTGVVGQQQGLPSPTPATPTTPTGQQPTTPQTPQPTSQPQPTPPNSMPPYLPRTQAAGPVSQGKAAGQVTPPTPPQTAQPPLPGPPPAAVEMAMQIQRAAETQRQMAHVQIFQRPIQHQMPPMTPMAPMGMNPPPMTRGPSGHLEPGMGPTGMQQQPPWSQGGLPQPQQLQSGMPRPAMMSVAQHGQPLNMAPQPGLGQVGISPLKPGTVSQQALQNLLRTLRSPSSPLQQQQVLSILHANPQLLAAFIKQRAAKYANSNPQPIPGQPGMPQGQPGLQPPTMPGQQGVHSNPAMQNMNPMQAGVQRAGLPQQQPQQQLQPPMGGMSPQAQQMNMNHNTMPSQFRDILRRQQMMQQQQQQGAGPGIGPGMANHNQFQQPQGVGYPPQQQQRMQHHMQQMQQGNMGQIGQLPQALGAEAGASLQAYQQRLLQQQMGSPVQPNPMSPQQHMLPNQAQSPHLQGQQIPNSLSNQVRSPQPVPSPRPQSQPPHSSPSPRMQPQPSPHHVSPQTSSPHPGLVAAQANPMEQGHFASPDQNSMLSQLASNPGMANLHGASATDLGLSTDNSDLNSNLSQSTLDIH
UniProt Q9H2F5, whole entry: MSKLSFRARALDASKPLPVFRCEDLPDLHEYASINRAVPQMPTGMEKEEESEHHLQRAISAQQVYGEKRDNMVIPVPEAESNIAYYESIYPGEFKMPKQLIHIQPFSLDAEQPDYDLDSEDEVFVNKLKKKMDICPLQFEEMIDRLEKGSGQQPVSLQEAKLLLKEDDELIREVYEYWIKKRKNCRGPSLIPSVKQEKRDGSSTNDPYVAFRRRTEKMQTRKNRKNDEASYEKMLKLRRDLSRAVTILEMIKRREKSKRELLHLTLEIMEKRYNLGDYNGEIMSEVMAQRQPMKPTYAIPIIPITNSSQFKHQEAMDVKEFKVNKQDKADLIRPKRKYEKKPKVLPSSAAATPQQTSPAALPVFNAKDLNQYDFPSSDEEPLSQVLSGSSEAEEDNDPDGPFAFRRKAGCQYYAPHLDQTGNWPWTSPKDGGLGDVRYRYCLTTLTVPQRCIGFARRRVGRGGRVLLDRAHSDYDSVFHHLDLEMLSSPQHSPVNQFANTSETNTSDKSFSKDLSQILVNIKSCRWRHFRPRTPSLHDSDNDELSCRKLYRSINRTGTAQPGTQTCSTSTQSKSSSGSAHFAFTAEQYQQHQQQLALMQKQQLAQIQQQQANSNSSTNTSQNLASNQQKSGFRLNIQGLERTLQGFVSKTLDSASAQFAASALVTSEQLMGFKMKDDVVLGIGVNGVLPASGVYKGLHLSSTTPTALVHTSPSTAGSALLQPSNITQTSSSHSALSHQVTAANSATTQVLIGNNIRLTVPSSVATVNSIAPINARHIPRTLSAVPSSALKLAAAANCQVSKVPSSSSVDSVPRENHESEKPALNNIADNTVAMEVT

In patent US20240309360A1 (GOVERNING COUNCIL OF THE UNIVERSITY OF TORONTO, published 2024):

Tests used:
Test in all cases: BioID2 proximity labelling, HEK293 cells
CBP = biological target: T1, CBP (human, UniProt Q92793 2-2442)
T1 construct: Endogenous prey identified by mass spectrometry; also called CBP/p300 (with p300)

p300 = biological target: T2, p300 (human, UniProt Q09472 2-2414)
T2 construct: Endogenous prey identified by mass spectrometry; also called EP300; CBP/p300 (with CBP)

EPC1 = biological target: T3, EPC1 (human, UniProt Q9H2F5 1-836, limits assumed)
T3 construct: also called NuA4 subunit EPC1

| binding result (CBP) | binding result (p300) | binding result (EPC1) | Binder |
| --- | --- | --- | --- |
| binds | binds | – | KLF15 fused to BioID2 (BirA from Aquifex aeolicus) and FLAG (other, human;Aquifex aeolicus, UniProt Q9UIH9 1-416, looked up, Tetracycline-inducible bait in HEK293 Flp-In T-REx cells; not shown: BioID2 biotin ligase (BirA from Aquifex aeolicus), C-terminal tag) MVDHLLPVDENFSSPKCPVGYLGDRLVGRRAYHMLPSPVSEDDSDASSPCSCSSPDSQALCSCYGGGLGTESQDSILDFLLSQATLGSGGGSGSSIGASSGPVAWGPWRRAAAPVKGEHFCLPEFPLGDPDDVPRPFQPTLEEIEEFLEENMEPGVKEVPEGNSKDLDACSQLSAGPHKSHLHPGSSGRERCSPPPGGASAGGAQGPGGGPTPDGPIPVLLQIQPVPVKQESGTGPASPGQAPENVKVAQLLVNIQGQTFALVPQVVPSSNLNLPSKFVRIAPVPIAAKPVGSGPLGPGPAGLLMGQKFPKNPAAELIKMHKCTFPGCSKMYTKSSHLKAHLRRHTGEKPFACTWPGCGWRFSRSDELSRHRRSHSGVKPYQCPVCEKKFARSDHLSKHIKVHRFPRSSRSVRSVN |
| binds | binds | – | HOXB2 fused to BioID2 (BirA from Aquifex aeolicus) and FLAG (other, human;Aquifex aeolicus, UniProt P14652 1-356, looked up, Tetracycline-inducible bait in HEK293 Flp-In T-REx cells; not shown: BioID2 biotin ligase (BirA from Aquifex aeolicus), C-terminal tag) MNFEFEREIGFINSQPSLAECLTSFPAVLETFQTSSIKESTLIPPPPPFEQTFPSLQPGASTLQRPRSQKRAEDGPALPPPPPPPLPAAPPAPEFPWMKEKKSAKKPSQSATSPSPAASAVPASGVGSPADGLGLPEAGGGGARRLRTAYTNTQLLELEKEFHFNKYLCRPRRVEIAALLDLTERQVKVWFQNRRMKHKRQTQHREPPDGEPACPGALEDICDPAEEPAASPGGPSASRAAWEACCHPPEVVPGALSADPRPLAVRLEGAGASSPGCALRGAGGLEPGPLPEDVFSGRQDSPFLPDLNFFAADSCLQLSGGLSPSLQGSLDSPVPFSEEELDFFTSTLCAIDLQFP |
| – | – | binds | KLF6 fused to BioID2 (BirA from Aquifex aeolicus) and FLAG (other, human;Aquifex aeolicus, UniProt Q99612 1-283, looked up, Tetracycline-inducible bait in HEK293 Flp-In T-REx cells; not shown: BioID2 biotin ligase (BirA from Aquifex aeolicus), C-terminal tag) MDVLPMCSIFQELQIVHETGYFSALPSLEEYWQQTCLELERYLQSEPCYVSASEIKFDSQEDLWTKIILAREKKEESELKISSSPPEDTLISPSFCYNLETNSLNSDVSSESSDSSEELSPTAKFTSDPIGEVLVSSGKLSSSVTSTPPSSPELSREPSQLWGCVPGELPSPGKVRSGTSGKPGDKGNGDASPDGRRRVHRCHFNGCRKVYTKSSHLKAHQRTHTGEKPYRCSWEGCEWRFARSDELTRHFRKHTGAKPFKCSHCDRCFSRSDHLALHMKRHL |
